In publication doi:10.1101/2020.04.09.033621:
Results are given in words; binding and its absence hold for the method and conditions named. In cells and extracts the contact can be indirect. Some entries that bind do so weakly or less than the wild type. Tags and fused reporters may be left off the sequences shown.

By UniProt entry, the sequences of proteins in these tests, tags left out.
UniProt Q9UM11: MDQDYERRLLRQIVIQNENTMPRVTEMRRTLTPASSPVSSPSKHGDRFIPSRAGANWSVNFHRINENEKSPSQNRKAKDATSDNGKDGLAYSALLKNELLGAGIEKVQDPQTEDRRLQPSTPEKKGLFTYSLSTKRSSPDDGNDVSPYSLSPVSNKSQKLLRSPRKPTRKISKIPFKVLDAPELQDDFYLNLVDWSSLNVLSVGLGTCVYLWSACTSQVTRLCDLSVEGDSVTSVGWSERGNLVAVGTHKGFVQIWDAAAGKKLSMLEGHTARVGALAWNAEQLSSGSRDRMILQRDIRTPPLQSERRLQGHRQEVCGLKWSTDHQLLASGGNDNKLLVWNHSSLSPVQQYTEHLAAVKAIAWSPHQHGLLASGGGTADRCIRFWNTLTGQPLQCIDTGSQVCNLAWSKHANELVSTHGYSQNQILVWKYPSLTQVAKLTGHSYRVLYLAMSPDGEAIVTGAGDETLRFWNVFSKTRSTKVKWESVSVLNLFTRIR

Molecular target: HA-Cdh1 (UniProt Q9UM11)
Assay: co-IP

B1: Myc-UHRF1^WT (protein, UniProt Q96T88 1-793)
chain: MWIQVRTMDGRQTHTVDSLSRLTKVEELRRKIQELFHVEPGLQRLFYRGKQMEDGHTLFDYEVRLNDTIQLLVRQSLVLPHSTKERDSELSDTDSGCCLGQSESDKSSTHGEAAAETDSRPADEDMWDETELGLYKVNEYVDARDTNMGAWFEAQVVRVTRKAPSRDEPCSSTSRPALEEDVIYHVKYDDYPENGVVQMNSRDVRARARTIIKWQDLEVGQVVMLNYNPDNPKERGFWYDAEISRKRETRTARELYANVVLGDDSLNDCRIIFVDEVFKIERPGEGSPMVDNPMRRKSGPSCKHCKDDVNRLCRVCACHLCGGRQDPDKQLMCDECDMAFHIYCLDPPLSSVPSEDEWYCPECRNDASEVVLAGERLRESKKKAKMASATSSSQRDWGKGMACVGRTKECTIVPSNHYGPIPGIPVGTMWRFRVQVSESGVHRPHVAGIHGRSNDGAYSLVLAGGYEDDVDHGNFFTYTGSGGRDLSGNKRTAEQSCDQKLTNTNRALALNCFAPINDQEGAEAKDWRSGKPVRVVRNVKGGKNSKYAPAEGNRYDGIYKVVKYWPEKGKSGFLVWRYLLRRDDDEPGPWTKEGKDRIKKLGLTMQYPEGYLEALANREREKENSKREEEEQQEGGFASPRTGKGKWKRKSAGGGPSRAGSPRRTSKKTKVEPYSLTAQQSSLIREDKSNAKLWNEVLASLKDRPASGSPFQLFLSKVEETFQCICCQELVFRPITTVCQHNVCKDCLDRSFRAQVFSCPACRYDLGRSYAMQVNQPLQTVLNQLFPGYGNGR
binding: binds
